# Laboratory results: publication PMC11605229
# These are yes or no findings as the source states them, for the method shown. Binding seen in cells or lysates may run through a third protein. Here binding means that the protein was enriched with, or labelled near, the bait; the list need not be complete.
# Molecular target: BioID-BAG3 (UniProt O95817)
# Test: proximity labelling; BioID in human AC16 cardiomyocyte cells: transfected with plasmid expressing BioID-BAG3 for 48 h, biotin for 16 h; LC-MS/MS; BAG3_Biotin vs. BioID vector only, adjusted p < 0.05; effect sizes corrected for biotin alone and for BAG3 over-expression; three replicates
row,Binder,binding
1,"FOSL2 (protein, UniProt P15408 1-326) MYQDYPGNFDTSSRGSSGSPAHAESYSSGGGGQQKFRVDMPGSGSAFIPTINAITTSQDLQWMVQPTVITSMSNPYPRSHPYSPLPGLASVPGHMALPRPGVIKTIGTTVGRRRRDEQLSPEEEEKRRIRRERNKLAAAKCRNRRRELTEKLQAETEELEEEKSGLQKEIAELQKEKEKLEFMLVAHGPVCKISPEERRSPPAPGLQPMRSGGGSVGAVVVKQEPLEEDSPSSSSAGLDKAQRSVIKPISIAGGFYGEEPLHTPIVVTSTPAVTPGTSNLVFTYPSVLEQESPASPSESCSKAHRRSSSSGDQSSDSLNSPTLLAL",binds
2,"EEF1B2 (protein, UniProt P24534 1-225) MGFGDLKSPAGLQVLNDYLADKSYIEGYVPSQADVAVFEAVSSPPPADLCHALRWYNHIKSYEKEKASLPGVKKALGKYGPADVEDTTGSGATDSKDDDDIDLFGSDDEEESEEAKRLREERLAQYESKKAKKPALVAKSSILLDVKPWDDETDMAKLEECVRSIQADGLVWGSSKLVPVGYGIKKLQIQCVVEDDKVGTDMLEEQITAFEDYVQSMDVAAFNKI",binds
3,"DNTTIP2 (protein, UniProt Q5QJE6 1-756) MVVTRSARAKASIQAASAESSGQKSFAANGIQAHPESSTGSDARTTAESQTTGKQSLIPRTPKARKRKSRTTGSLPKGTEPSTDGETSEAESNYSVSEHHDTILRVTRRRQILIACSPVSSVRKKPKVTPTKESYTEEIVSEAESHVSGISRIVLPTEKTTGARRSKAKSLTDPSQESHTEAISDAETSSSDISFSGIATRRTRSMQRKLKAQTEKKDSKIVPGNEKQIVGTPVNSEDSDTRQTSHLQARSLSEINKPNFYNNDFDDDFSHRSSENILTVHEQANVESLKETKQNCKDLDEDANGITDEGKEINEKSSQLKNLSELQDTSLQQLVSQRHSTPQNKNAVSVHSNLNSEAVMKSLTQTFATVEVGRWNNNKKSPIKASDLTKFGDCGGSDDEEESTVISVSEDMNSEGNVDFECDTKLYTSAPNTSQGKDNSVLLVLSSDESQQSENSENEEDTLCFVENSGQRESLSGDTGSLSCDNALFVIDTTPGMSADKNFYLEEEDKASEVAIEEEKEEEEDEKSEEDSSDHDENEDEFSDEEDFLNSTKAKLLKLTSSSIDPGLSIKQLGGLYINFNADKLQSNKRTLTQIKEKKKNELLQKAVITPDFEKNHCVPPYSESKYQLQKKRRKERQKTAGDGWFGMKAPEMTNELKNDLKALKMRASMDPKRFYKKNDRDGFPKYFQIGTIVDNPADFYHSRIPKKQRKRTIVEELLADSEFRRYNRRKYSEIMAEKAANAAGKKFRKKKKFRN",binds
4,"FHL1 (protein, UniProt Q13642 1-323) MAEKFDCHYCRDPLQGKKYVQKDGHHCCLKCFDKFCANTCVECRKPIGADSKEVHYKNRFWHDTCFRCAKCLHPLANETFVAKDNKILCNKCTTREDSPKCKGCFKAIVAGDQNVEYKGTVWHKDCFTCSNCKQVIGTGSFFPKGEDFYCVTCHETKFAKHCVKCNKAITSGGITYQDQPWHADCFVCVTCSKKLAGQRFTAVEDQYYCVDCYKNFVAKKCAGCKNPITGKRTVSRVSHPVSKARKPPVCHGKRLPLTLFPSANLRGRHPGGERTCPSWVVVLYRKNRSLAAPRGPGLVKAPVWWPMKDNPGTTTASTAKNAP",binds
5,"IFI44 (protein, UniProt Q8TCB0 1-444) MAVTTRLTWLHEKILQNHFGGKRLSLLYKGSVHGFRNGVLLDRCCNQGPTLTVIYSEDHIIGAYAEESYQEGKYASIILFALQDTKISEWKLGLCTPETLFCCDVTKYNSPTNFQIDGRNRKVIMDLKTMENLGLAQNCTISIQDYEVFRCEDSLDERKIKGVIELRKSLLSALRTYEPYGSLVQQIRILLLGPIGAGKSSFFNSVRSVFQGHVTHQALVGTNTTGISEKYRTYSIRDGKDGKYLPFILCDSLGLSEKEGGLCRDDIFYILNGNIRDRYQFNPMESIKLNHHDYIDSPSLKDRIHCVAFVFDASSIQYFSSQMIVKIKRIRRELVNAGVVHVALLTHVDSMDLITKGDLIEIERCEPVRSKLEEVQRKLGFALSDISVVSNYSSEWELDPVKDVLILSALRRMLWAADDFLEDLPFEQIGNLREEIINCAQGKK",binds

# More lines, now with the values ahead:
row,binding,Binder
1,binds,"VPS4B (protein, UniProt O75351 1-444) MSSTSPNLQKAIDLASKAAQEDKAGNYEEALQLYQHAVQYFLHVVKYEAQGDKAKQSIRAKCTEYLDRAEKLKEYLKNKEKKAQKPVKEGQPSPADEKGNDSDGEGESDDPEKKKLQNQLQGAIVIERPNVKWSDVAGLEGAKEALKEAVILPIKFPHLFTGKRTPWRGILLFGPPGTGKSYLAKAVATEANNSTFFSISSSDLVSKWLGESEKLVKNLFQLARENKPSIIFIDEIDSLCGSRSENESEAARRIKTEFLVQMQGVGVDNDGILVLGATNIPWVLDSAIRRRFEKRIYIPLPEPHARAAMFKLHLGTTQNSLTEADFRELGRKTDGYSGADISIIVRDALMQPVRKVQSATHFKKVRGPSRADPNHLVDDLLTPCSPGDPGAIEMTWMDVPGDKLLEPVVSMSDMLRSLSNTKPTVNEHDLLKLKKFTEDFGQEG"
2,binds,"IRF9 (protein, UniProt Q00978 1-393) MASGRARCTRKLRNWVVEQVESGQFPGVCWDDTAKTMFRIPWKHAGKQDFREDQDAAFFKAWAIFKGKYKEGDTGGPAVWKTRLRCALNKSSEFKEVPERGRMDVAEPYKVYQLLPPGIVSGQPGTQKVPSKRQHSSVSSERKEEEDAMQNCTLSPSVLQDSLNNEEEGASGGAVHSDIGSSSSSSSPEPQEVTDTTEAPFQGDQRSLEFLLPPEPDYSLLLTFIYNGRVVGEAQVQSLDCRLVAEPSGSESSMEQVLFPKPGPLEPTQRLLSQLERGILVASNPRGLFVQRLCPIPISWNAPQAPPGPGPHLLPSNECVELFRTAYFCRDLVRYFQGLGPPPKFQVTLNFWEESHGSSHTPQNLITVKMEQAFARYLLEQTPEQQAAILSLV"
3,binds,"SP110 (protein, UniProt Q9HB58 1-689) MFTMTRAMEEALFQHFMHQKLGIAYAIHKPFPFFEGLLDNSIITKRMYMESLEACRNLIPVSRVVHNILTQLERTFNLSLLVTLFSQINLREYPNLVTIYRSFKRVGASYEWQSRDTPILLEAPTGLAEGSSLHTPLALPPPQPPQPSCSPCAPRVSEPGTSSQQSDEILSESPSPSDPVLPLPALIQEGRSTSVTNDKLTSKMNAEEDSEEMPSLLTSTVQVASDNLIPQIRDKEDPQEMPHSPLGSMPEIRDNSPEPNDPEEPQEVSSTPSDKKGKKRKRCIWSTPKRRHKKKSLPGGTASSRHGIQKKLKRVDQVPQKKDDSTCNSTVETRAQKARTECARKSRSEEIIDGTSEMNEGKRSQKTPSTPRRVTQGAASPGHGIQEKLQVVDKVTQRKDDSTWNSEVMMRVQKARTKCARKSRLKEKKKEKDICSSSKRRFQKNIHRRGKPKSDTVDFHCSKLPVTCGEAKGILYKKKMKHGSSVKCIRNEDGTWLTPNEFEVEGKGRNAKNWKRNIRCEGMTLGELLKRKNSDECEVCCQGGQLLCCGTCPRVFHEDCHIPPVEAKRMLWSCTFCRMKRSSGSQQCHHVSKTLERQMQPQDQLIRDYGEPFQEAMWLDLVKERLITEMYTVAWFVRDMRLMFRNHKTFYKASDFGQVGLDLEAEFEKDLKDVLGFHEANDGGFWTLP"
4,binds,"SRP19 (protein, UniProt P09132 1-144) MACAAARSPADQDRFICIYPAYLNNKKTIAEGRRIPISKAVENPTATEIQDVCSAVGLNVFLEKNKMYSREWNRDVQYRGRVRVQLKQEDGSLCLVQFPSRKSVMLYAAEMIPKLKTRTQKTGGADQSLQQGEGSKKGKGKKKK"
5,binds,"TCOF1 (protein, UniProt Q13428 1-1488) MAEARKRRELLPLIYHHLLRAGYVRAAREVKEQSGQKCFLAQPVTLLDIYTHWQQTSELGRKRKAEEDAALQAKKTRVSDPISTSESSEEEEEAEAETAKATPRLASTNSSVLGADLPSSMKEKAKAETEKAGKTGNSMPHPATGKTVANLLSGKSPRKSAEPSANTTLVSETEEEGSVPAFGAAAKPGMVSAGQADSSSEDTSSSSDETDVEGKPSVKPAQVKASSVSTKESPARKAAPAPGKVGDVTPQVKGGALPPAKRAKKPEEESESSEEGSESEEEAPAGTRSQVKASEKILQVRAASAPAKGTPGKGATPAPPGKAGAVASQTKAGKPEEDSESSSEESSDSEEETPAAKALLQAKASGKTSQVGAASAPAKESPRKGAAPAPPGKTGPAVAKAQAGKREEDSQSSSEESDSEEEAPAQAKPSGKAPQVRAASAPAKESPRKGAAPAPPRKTGPAAAQVQVGKQEEDSRSSSEESDSDREALAAMNAAQVKPLGKSPQVKPASTMGMGPLGKGAGPVPPGKVGPATPSAQVGKWEEDSESSSEESSDSSDGEVPTAVAPAQEKSLGNILQAKPTSSPAKGPPQKAGPVAVQVKAEKPMDNSESSEESSDSADSEEAPAAMTAAQAKPALKIPQTKACPKKTNTTASAKVAPVRVGTQAPRKAGTATSPAGSSPAVAGGTQRPAEDSSSSEESDSEEEKTGLAVTVGQAKSVGKGLQVKAASVPVKGSLGQGTAPVLPGKTGPTVTQVKAEKQEDSESSEEESDSEEAAASPAQVKTSVKKTQAKANPAAARAPSAKGTISAPGKVVTAAAQAKQRSPSKVKPPVRNPQNSTVLARGPASVPSVGKAVATAAQAQTGPEEDSGSSEEESDSEEEAETLAQVKPSGKTHQIRAALAPAKESPRKGAAPTPPGKTGPSAAQAGKQDDSGSSSEESDSDGEAPAAVTSAQVIKPPLIFVDPNRSPAGPAATPAQAQAASTPRKARASESTARSSSSESEDEDVIPATQCLTPGIRTNVVTMPTAHPRIAPKASMAGASSSKESSRISDGKKQEGPATQVSKKNPASLPLTQAALKVLAQKASEAQPPVARTQPSSGVDSAVGTLPATSPQSTSVQAKGTNKLRKPKLPEVQQATKAPESSDDSEDSSDSSSGSEEDGEGPQGAKSAHTLGPTPSRTETLVEETAAESSEDDVVAPSQSLLSGYMTPGLTPANSQASKATPKLDSSPSVSSTLAAKDDPDGKQEAKPQQAAGMLSPKTGGKEAASGTTPQKSRKPKKGAGNPQASTLALQSNITQCLLGQPWPLNEAQVQASVVKVLTELLEQERKKVVDTTKESSRKGWESRKRKLSGDQPAARTPRSKKKKKLGAGEGGEASVSPEKTSTTSKGKAKRDKASGDVKEKKGKGSLGSQGAKDEPEEELQKGMGTVEGGDQSNPKSKKEKKKSDKRKKDKEKKEKKKKAKKASTKDSESPSQKKKKKKKKTAEQTV"
6,binds,"NQO2 (protein, UniProt P16083 1-231) MAGKKVLIVYAHQEPKSFNGSLKNVAVDELSRQGCTVTVSDLYAMNLEPRATDKDITGTLSNPEVFNYGVETHEAYKQRSLASDITDEQKKVREADLVIFQFPLYWFSVPAILKGWMDRVLCQGFAFDIPGFYDSGLLQGKLALLSVTTGGTAEMYTKTGVNGDSRYFLWPLQHGTLHFCGFKVLAPQISFAPEIASEEERKGMVAAWSQRLQTIWKEEPIPCTAHWHFGQ"
